Like-named read-outs stand apart in the source and are kept apart here. No constants are given. Whether binding was seen depends on the method and setting. Binding seen in cells or lysates may run through a third protein. Here binding means that the protein was enriched with, or labelled near, the bait; the list need not be complete. For some of these results: Tags and fused reporters may be left off the sequences shown.
T1: HA-BirA-TRIM2^WT (human) (UniProt Q9C040)
T1 sequence: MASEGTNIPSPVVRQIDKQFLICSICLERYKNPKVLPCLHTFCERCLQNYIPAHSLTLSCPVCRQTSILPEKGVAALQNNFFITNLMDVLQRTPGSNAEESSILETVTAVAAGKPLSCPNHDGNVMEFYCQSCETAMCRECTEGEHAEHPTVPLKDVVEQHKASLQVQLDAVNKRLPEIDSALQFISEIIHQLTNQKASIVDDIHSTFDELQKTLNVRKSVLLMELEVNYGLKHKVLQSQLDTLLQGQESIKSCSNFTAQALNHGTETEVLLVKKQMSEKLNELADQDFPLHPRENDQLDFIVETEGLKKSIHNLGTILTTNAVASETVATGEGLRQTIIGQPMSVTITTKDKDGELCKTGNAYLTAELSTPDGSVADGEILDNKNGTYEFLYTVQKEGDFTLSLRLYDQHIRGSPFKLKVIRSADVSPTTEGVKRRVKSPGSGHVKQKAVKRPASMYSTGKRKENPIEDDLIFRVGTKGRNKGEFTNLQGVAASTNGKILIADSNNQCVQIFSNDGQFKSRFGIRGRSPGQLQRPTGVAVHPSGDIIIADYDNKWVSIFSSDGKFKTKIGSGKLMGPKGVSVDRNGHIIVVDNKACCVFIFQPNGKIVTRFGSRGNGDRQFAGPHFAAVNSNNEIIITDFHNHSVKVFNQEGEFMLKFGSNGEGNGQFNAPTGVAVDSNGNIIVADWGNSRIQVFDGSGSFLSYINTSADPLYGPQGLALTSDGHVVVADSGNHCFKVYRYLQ

The chains behind the UniProt entries cited, without tags or fusion partners.
UniProt Q92783: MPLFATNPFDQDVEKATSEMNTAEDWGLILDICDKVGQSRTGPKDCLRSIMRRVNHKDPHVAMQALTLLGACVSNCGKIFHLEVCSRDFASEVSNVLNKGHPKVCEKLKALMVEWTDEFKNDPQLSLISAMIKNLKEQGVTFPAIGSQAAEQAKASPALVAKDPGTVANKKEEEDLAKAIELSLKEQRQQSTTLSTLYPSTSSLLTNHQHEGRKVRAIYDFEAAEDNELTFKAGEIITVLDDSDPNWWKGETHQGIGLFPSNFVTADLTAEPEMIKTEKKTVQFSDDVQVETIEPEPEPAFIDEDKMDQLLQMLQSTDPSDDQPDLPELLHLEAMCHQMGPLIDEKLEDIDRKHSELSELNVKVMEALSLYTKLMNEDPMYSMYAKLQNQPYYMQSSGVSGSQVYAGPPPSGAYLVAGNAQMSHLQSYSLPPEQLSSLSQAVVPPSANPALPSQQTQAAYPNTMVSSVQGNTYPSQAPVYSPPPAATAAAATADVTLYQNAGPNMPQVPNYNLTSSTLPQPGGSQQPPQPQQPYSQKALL
UniProt Q8WUM9: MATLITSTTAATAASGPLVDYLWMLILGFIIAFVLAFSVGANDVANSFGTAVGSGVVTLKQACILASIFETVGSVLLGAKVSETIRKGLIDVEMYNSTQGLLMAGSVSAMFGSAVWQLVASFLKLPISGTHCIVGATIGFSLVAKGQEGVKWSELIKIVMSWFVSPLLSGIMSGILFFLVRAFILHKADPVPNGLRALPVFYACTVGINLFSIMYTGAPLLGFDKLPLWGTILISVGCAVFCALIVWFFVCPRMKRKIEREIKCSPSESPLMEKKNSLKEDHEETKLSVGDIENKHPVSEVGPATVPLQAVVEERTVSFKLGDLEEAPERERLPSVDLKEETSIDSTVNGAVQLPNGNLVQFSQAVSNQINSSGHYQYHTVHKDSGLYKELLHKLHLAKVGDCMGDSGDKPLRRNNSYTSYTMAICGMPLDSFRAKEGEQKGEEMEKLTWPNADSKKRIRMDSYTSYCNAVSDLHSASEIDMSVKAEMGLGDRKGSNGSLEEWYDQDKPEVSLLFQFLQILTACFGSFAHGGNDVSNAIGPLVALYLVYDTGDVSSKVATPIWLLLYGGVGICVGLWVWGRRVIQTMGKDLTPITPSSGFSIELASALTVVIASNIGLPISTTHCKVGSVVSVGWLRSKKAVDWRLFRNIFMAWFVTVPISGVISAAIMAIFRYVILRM
UniProt Q14258: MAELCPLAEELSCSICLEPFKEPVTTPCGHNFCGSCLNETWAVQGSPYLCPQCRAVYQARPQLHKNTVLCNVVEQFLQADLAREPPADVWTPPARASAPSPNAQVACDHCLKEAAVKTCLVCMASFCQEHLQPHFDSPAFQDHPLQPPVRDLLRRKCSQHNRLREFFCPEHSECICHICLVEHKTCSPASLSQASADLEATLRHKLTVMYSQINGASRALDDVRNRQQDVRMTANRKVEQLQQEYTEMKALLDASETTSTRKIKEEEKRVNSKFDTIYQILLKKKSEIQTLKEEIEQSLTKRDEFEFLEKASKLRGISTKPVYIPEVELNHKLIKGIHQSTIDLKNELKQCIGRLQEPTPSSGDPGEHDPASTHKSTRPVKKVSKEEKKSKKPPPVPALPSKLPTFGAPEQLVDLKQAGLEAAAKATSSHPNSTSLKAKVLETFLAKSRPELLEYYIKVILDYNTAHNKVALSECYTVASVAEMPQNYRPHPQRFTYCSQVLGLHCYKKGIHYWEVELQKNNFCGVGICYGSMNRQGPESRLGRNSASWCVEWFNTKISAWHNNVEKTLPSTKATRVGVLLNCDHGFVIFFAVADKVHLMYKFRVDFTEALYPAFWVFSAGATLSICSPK
UniProt Q13114: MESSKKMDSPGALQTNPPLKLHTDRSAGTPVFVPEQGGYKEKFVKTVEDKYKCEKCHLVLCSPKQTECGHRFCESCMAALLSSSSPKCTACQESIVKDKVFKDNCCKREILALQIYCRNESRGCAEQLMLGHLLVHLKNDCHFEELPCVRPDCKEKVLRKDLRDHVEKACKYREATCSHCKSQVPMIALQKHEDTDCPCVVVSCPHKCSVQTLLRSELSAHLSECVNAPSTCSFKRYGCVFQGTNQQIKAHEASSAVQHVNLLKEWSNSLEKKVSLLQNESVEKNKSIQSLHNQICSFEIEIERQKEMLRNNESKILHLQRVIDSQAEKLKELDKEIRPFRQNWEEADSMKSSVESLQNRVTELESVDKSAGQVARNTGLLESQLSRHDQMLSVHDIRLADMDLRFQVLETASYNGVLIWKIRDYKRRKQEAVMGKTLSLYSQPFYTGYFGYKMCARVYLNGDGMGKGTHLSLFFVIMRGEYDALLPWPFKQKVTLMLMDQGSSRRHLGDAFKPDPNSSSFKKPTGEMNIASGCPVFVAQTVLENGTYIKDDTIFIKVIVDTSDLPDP
UniProt O14964: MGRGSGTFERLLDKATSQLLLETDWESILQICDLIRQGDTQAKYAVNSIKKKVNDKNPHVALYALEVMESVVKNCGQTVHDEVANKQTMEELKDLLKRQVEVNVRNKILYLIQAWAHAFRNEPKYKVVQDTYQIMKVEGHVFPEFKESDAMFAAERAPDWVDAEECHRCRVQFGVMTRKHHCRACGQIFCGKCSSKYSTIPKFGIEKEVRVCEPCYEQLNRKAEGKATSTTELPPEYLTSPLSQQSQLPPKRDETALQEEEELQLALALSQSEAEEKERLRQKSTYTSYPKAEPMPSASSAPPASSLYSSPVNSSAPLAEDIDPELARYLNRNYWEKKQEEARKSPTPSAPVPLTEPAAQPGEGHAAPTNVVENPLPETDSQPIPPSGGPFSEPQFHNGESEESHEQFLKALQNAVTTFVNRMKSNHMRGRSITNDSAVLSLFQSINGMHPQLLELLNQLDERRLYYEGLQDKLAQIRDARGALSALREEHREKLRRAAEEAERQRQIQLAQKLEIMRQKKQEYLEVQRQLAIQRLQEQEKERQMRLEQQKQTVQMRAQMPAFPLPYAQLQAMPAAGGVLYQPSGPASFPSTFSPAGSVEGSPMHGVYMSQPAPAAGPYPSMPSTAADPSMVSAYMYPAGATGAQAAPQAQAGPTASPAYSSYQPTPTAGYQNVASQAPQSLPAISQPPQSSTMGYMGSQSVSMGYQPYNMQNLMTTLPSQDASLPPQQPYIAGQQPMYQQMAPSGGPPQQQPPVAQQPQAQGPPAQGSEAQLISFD


Assays:
HA-BirA-TRIM2^WT (human) [1] = target: T1, HA-BirA-TRIM2^WT (human); experiment: proximity labelling; ubiquitin-specific proximity labelling: HEK 293-T co-transfected with AviTag-Ub and HA-BirA-TRIM2, 100 µM biotin, 0.5 µM Carfilzomib for 5 h; streptavidin pull-down, TMT quantitative MS; enrichment against HA-BirA and HA-BirA-TRIM2 C60S
[2] = target: 3x flag-tagged TMEM106B^WT (full-length) (human) (UniProt Q9NUM4); experiment: affinity purification with mass spectrometry; anti-flag magnetic beads with lysate of HEK 293-T transfected with flag-TMEM106B variants (150 mM NaCl lysis buffer), 16 h at 4 °C, elution with 3X FLAG peptide, quantitative MS; changes relative to WT
[3] = target: 3x flag-tagged TMEM106B^K3A/K14A (full-length) (human) (UniProt Q9NUM4); experiment: as above
HA-BirA-TRIM2^WT (human) [4] = target: T1, HA-BirA-TRIM2^WT (human); experiment: proximity labelling; ubiquitin-specific proximity labelling: HEK 293-T co-transfected with AviTag-Ub and HA-BirA-TRIM2, 100 µM biotin, 0.5 µM Carfilzomib for 5 h; streptavidin pull-down, TMT quantitative MS; enrichment against HA-BirA and HA-BirA-TRIM2 C60S; remark: listed apart in the source

Row | Molecule | binding (HA-BirA-TRIM2^WT (human) [1]) | binding [2] | binding [3] | binding (HA-BirA-TRIM2^WT (human) [4])
1 | STAM (from UniProt Q92783 1-540) | binds |  |  | 
2 | SLC20A1 (from UniProt Q8WUM9 1-679) | binds |  |  | 
3 | TRIM25 (from UniProt Q14258 1-630) | binds |  |  | 
4 | ITM2C (protein, UniProt Q9NQX7 1-267) MVKISFQPAVAGIKGDKADKASASAPAPASATEILLTPAREEQPPQHRSKRGGSVGGVCYLSMGMVVLLMGLVFASVYIYRYFFLAQLARDNFFRCGVLYEDSLSSQVRTQMELEEDVKIYLDENYERINVPVPQFGGGDPADIIHDFQRGLTAYHDISLDKCYVIELNTTIVLPPRNFWELLMNVKRGTYLPQTYIIQEEMVVTEHVSDKEALGSFIYHLCNGKDTYRLRRRATRRRINKRGAKNCNAIRHFENTFVVETLICGVV |  | binds | binds | 
5 | RABEP2 (protein, UniProt Q9H5N1 1-569) MAAAAPVAADDDERRRRPGAALEDSRSQEGANGEAESGELSRLRAELAGALAEMETMKAVAEVSESTKAEAVAAVQRQCQEEVASLQAILKDSISSYEAQITALKQERQQQQQDCEEKERELGRLKQLLSRAYPLDSLEKQMEKAHEDSEKLREIVLPMEKEIEELKAKLLRAEELIQEIQRRPRHAPSLHGSTELLPLSRDPSPPLEPLEELSGDGGPAAEAFAHNCDDSASISSFSLGGGVGSSSSLPQSRQGLSPEQEETASLVSTGTLVPEGIYLPPPGYQLVPDTQWEQLQTEGRQLQKDLESVSRERDELQEGLRRSNEDCAKQMQVLLAQVQNSEQLLRTLQGTVSQAQERVQLQMAELVTTHKCLHHEVKRLNEENQGLRAEQLPSSAPQGSQQEQGEEESLPSSVPELQQLLCCTRQEARARLQAQEHGAERLRIEIVTLREALEEETVARASLEGQLRVQREETEVLEASLCSLRTEMERVQQEQSKAQLPDLLSEQRAKVLRLQAELETSEQVQRDFVRLSQALQVRLERIRQAETLEQVRSIMDEAPLTDVRDIKDT |  |  |  | binds
6 | PDIA6 (protein, UniProt Q15084 20-440) LYSSSDDVIELTPSNFNREVIQSDSLWLVEFYAPWCGHCQRLTPEWKKAATALKDVVKVGAVDADKHHSLGGQYGVQGFPTIKIFGSNKNRPEDYQGGRTGEAIVDAALSALRQLVKDRLGGRSGGYSSGKQGRSDSSSKKDVIELTDDSFDKNVLDSEDVWMVEFYAPWCGHCKNLEPEWAAAASEVKEQTKGKVKLAAVDATVNQVLASRYGIRGFPTIKIFQKGESPVDYDGGRTRSDIVSRALDLFSDNAPPPELLEIINEDIAKRTCEEHQLCVVAVLPHILDTGAAGRNSYLEVLLKLADKYKKKMWGWLWTEAGAQSELETALGIGGFGYPAMAAINARKMKFALLKGSFSEQGINEFLRELSFGRGSTAPVGGGAFPTIVEREPWDGRDGELPVEDDIDLSDVELDDLGKDEL |  | binds | binds | 

Now from value to molecule:

Row | binding (HA-BirA-TRIM2^WT (human) [1]) | binding [2] | binding [3] | binding (HA-BirA-TRIM2^WT (human) [4]) | Molecule
7 | binds | binds | binds |  | ITM2B (from UniProt Q9Y287 1-266)
8 | binds |  |  |  | TRAF3 (from UniProt Q13114 1-568)
9 | binds |  |  |  | HGS (from UniProt O14964 1-777)
10 |  |  |  | binds | SNF8 (protein, UniProt Q96H20 1-258) MHRRGVGAGAIAKKKLAEAKYKERGTVLAEDQLAQMSKQLDMFKTNLEEFASKHKQEIRKNPEFRVQFQDMCATIGVDPLASGKGFWSEMLGVGDFYYELGVQIIEVCLALKHRNGGLITLEELHQQVLKGRGKFAQDVSQDDLIRAIKKLKALGTGFGIIPVGGTYLIQSVPAELNMDHTVVLQLAEKNGYVTVSEIKASLKWETERARQVLEHLLKEGLAWLDLQAPGEAHYWLPALFTDLYSQEITAEEAREALP
11 |  | binds | binds |  | IFNGR1 (protein, UniProt P15260 18-489) EMGTADLGPSSVPTPTNVTIESYNMNPIVYWEYQIMPQVPVFTVEVKNYGVKNSEWIDACINISHHYCNISDHVGDPSNSLWVRVKARVGQKESAYAKSEEFAVCRDGKIGPPKLDIRKEEKQIMIDIFHPSVFVNGDEQEVDYDPETTCYIRVYNVYVRMNGSEIQYKILTQKEDDCDEIQCQLAIPVSSLNSQYCVSAEGVLHVWGVTTEKSKEVCITIFNSSIKGSLWIPVVAALLLFLVLSLVFICFYIKKINPLKEKSIILPKSLISVVRSATLETKPESKYVSLITSYQPFSLEKEVVCEEPLSPATVPGMHTEDNPGKVEHTEELSSITEVVTTEENIPDVVPGSHLTPIERESSSPLSSNQSEPGSIALNSYHSRNCSESDHSRNGFDTDSSCLESHSSLSDSEFPPNNKGEIKTEGQELITVIKAPTSFGYDKPHVLVDLLVDDSGKESLIGYRPTEDSKEFS

— paper PMC12894719
